Legend:
[1] = system: FDC-cfms cells (M-CSF dependent, c-fms); test: cells; details: read-out: IC50, growth of M-CSF stimulated cells
FDC-cfms cells = test: cells; details: read-out: IC50, growth of IL-3 stimulated cultures
[2] = target: PDGF receptor tyrosine kinase; details: read-out: IC50 PDGF receptor tyrosine kinase; cited from earlier work

## Cc1ccc(NC(=O)c2ccc(CN3CCN(C)CC3)cc2)cc1Nc1nccc(-c2cccnc2)n1 [Compound I, 4-(4-methylpiperazin-1-ylmethyl)-N-[4-methyl-3-(4-(pyridin-3-yl)pyrimidin-2-ylamino)phenyl]-benzamide]
[1]
  IC50: 1100 nM
FDC-cfms cells
  IC50: 5.9 µM
[2]
  IC50: 250 nM
